Data published in the supplement of paper PMC8426693.
The list shows a part of the results.

Experiments:
Assay in all cases: NMR binding call after quantification (hit when 2 of 3 NMR criteria are met) (binary (1 = binding, 0 = not binding)); higher = binding
Details in all cases: RNA concentration 10 µM; fragment concentration 200 µM; 293 K
SARS-CoV-2 5_SL7 RNA = system: SARS-CoV-2 5_SL7 RNA
SARS-CoV-2 5_SL8 RNA = system: SARS-CoV-2 5_SL8 RNA
[1] = system: SARS-CoV-2 attenuator hairpin (att HP) RNA
[2] = system: SARS-CoV-2 frameshift pseudoknot (PK) RNA

Measured: NMR binding call

Oc1ccc(CN2CCc3ccccc3C2)cc1
0: SARS-CoV-2 5_SL7 RNA | SARS-CoV-2 5_SL8 RNA | [1] | [2]

COc1ccc(C(N)c2ccccc2)cc1.Cl (stereo not drawn)
0: SARS-CoV-2 5_SL7 RNA | SARS-CoV-2 5_SL8 RNA | [1] | [2]

O=C(COc1ccccc1)Nc1cccc(F)c1
0: SARS-CoV-2 5_SL7 RNA | SARS-CoV-2 5_SL8 RNA | [1] | [2]

N#CCC(=O)N1CCC(C(N)=O)CC1
0: SARS-CoV-2 5_SL7 RNA | SARS-CoV-2 5_SL8 RNA | [1] | [2]

Two records picked at random from those above:
Oc1ccc(CN2CCc3ccccc3C2)cc1
0: SARS-CoV-2 5_SL7 RNA | SARS-CoV-2 5_SL8 RNA | [1] | [2]

N#CCC(=O)N1CCC(C(N)=O)CC1
0: SARS-CoV-2 5_SL7 RNA | SARS-CoV-2 5_SL8 RNA | [1] | [2]

Remaining list, next part.

CCC(=O)Nc1nc(C)cs1
0: SARS-CoV-2 5_SL7 RNA | SARS-CoV-2 5_SL8 RNA | [1] | [2]

CC(=O)NCCc1ccccc1C
0: SARS-CoV-2 5_SL7 RNA | SARS-CoV-2 5_SL8 RNA | [1] | [2]

CNC1(CO)CCOCC1
0: SARS-CoV-2 5_SL7 RNA | SARS-CoV-2 5_SL8 RNA | [1] | [2]

CCOC(=O)Nc1sccc1C(N)=O
0: SARS-CoV-2 5_SL7 RNA | SARS-CoV-2 5_SL8 RNA | [1] | [2]

CNc1nccnc1C#N
0: SARS-CoV-2 5_SL7 RNA | SARS-CoV-2 5_SL8 RNA | [1] | [2]

CC(O)CNCc1ccc2c(c1)OCO2 (stereo not drawn)
0: SARS-CoV-2 5_SL7 RNA | SARS-CoV-2 5_SL8 RNA | [1] | [2]

CC(CO)Nc1ncc(Cl)cc1F (stereo not drawn)
0: SARS-CoV-2 5_SL7 RNA | SARS-CoV-2 5_SL8 RNA | [1] | [2]

Cl.O=C(CC(F)(F)F)N1CCNCC1
0: SARS-CoV-2 5_SL7 RNA | SARS-CoV-2 5_SL8 RNA | [1] | [2]

Cc1cccc(C(=O)NCC(=O)O)c1
0: SARS-CoV-2 5_SL7 RNA | SARS-CoV-2 5_SL8 RNA | [1] | [2]

CS(=O)(=O)N1CCCC1CN (stereo not drawn)
0: SARS-CoV-2 5_SL7 RNA | SARS-CoV-2 5_SL8 RNA | [1] | [2]

COCC(=O)NCc1ccccc1
0: SARS-CoV-2 5_SL7 RNA | SARS-CoV-2 5_SL8 RNA | [1] | [2]

C1CN(CC2CCOCC2)CCN1
0: SARS-CoV-2 5_SL7 RNA | SARS-CoV-2 5_SL8 RNA | [1] | [2]

CCn1cc(NC(=O)C2CCC2)cn1
0: SARS-CoV-2 5_SL7 RNA | SARS-CoV-2 5_SL8 RNA | [1] | [2]
